Like-named read-outs stand apart in the source and are kept apart here. No constants are given. Whether binding was seen depends on the method and setting. Binding seen in cells or lysates may run through a third protein. Some entries that bind do so weakly or less than the wild type. For part of these data: Tags and fused reporters may be left off the sequences shown.
Legend:
[1] = target: Flag-Tcf7l2 (pcDNA3 Flag-tag Tcf7l2) (UniProt Q924A0); test: co-IP; HEK293T cells transfected for 48 h with Flag-Tcf7l2 and β-catenin, Myc-Kaiso (varied amount) or HA-Sox10; precipitated with anti-Tcf7l2 (Fig. 4j) or anti-Flag (Fig. 5g); western blot
[2] = target: Tcf7l2 (endogenous, Oli-neu cells) (mouse (endogenous in Oli-neu)) (UniProt Q924A0); test: co-IP; Oli-neu cells, endogenous Tcf7l2; cells transfected with 3 μg pCS2-Myc-Kaiso or pcDNA3-HA-Sox10 (competition assay)
[3] = target: T1, Tcf7l2 (endogenous, Oli-neu cells) (mouse (endogenous in Oli-neu)), Q924A0; test: as above; details: remark: other sources report otherwise
T1 chain: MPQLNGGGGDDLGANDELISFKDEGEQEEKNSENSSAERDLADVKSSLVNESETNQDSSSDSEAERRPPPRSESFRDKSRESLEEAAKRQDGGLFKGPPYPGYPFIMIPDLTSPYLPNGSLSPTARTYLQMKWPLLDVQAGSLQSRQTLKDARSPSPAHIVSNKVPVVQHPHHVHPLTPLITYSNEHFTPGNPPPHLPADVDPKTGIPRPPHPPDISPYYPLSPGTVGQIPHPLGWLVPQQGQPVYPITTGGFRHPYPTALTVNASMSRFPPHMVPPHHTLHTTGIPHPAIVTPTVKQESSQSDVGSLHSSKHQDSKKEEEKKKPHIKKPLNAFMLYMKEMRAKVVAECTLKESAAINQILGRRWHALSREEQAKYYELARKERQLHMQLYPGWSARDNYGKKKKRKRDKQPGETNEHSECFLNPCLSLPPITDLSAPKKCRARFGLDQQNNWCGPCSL

Sequences of proteins named here, by UniProt entry; tags and fusion partners are left off.
UniProt Q04888: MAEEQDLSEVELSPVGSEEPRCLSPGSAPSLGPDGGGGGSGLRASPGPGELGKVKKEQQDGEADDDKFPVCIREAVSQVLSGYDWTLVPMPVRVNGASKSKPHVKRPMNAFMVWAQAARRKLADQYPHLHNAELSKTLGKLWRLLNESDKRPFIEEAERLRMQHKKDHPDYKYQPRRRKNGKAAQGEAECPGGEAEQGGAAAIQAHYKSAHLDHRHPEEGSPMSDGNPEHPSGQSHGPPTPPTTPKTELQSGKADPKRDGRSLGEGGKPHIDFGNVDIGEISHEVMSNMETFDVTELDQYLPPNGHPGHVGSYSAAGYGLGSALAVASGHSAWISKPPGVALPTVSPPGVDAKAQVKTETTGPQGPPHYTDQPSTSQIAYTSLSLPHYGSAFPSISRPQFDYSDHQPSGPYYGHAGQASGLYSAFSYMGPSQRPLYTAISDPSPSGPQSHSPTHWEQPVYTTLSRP

[4] = target: Tcf7l2 (endogenous, Oli-neu cells) (mouse (endogenous in Oli-neu)) (UniProt Q924A0); test: as above; remark: listed apart in the source

Row | binding [1] | binding [4] | further results | Molecule
1 | binds | – | – | HA-Sox10 (pcDNA3-HA-Sox10), in HEK293T (from UniProt Q04888 1-466)
2 | – | – | binding [2]: binds | HA-Sox10 (pcDNA3-HA-Sox10), in Oli-neu cells (from UniProt Q04888 1-466)
3 | binds | – | – | Myc-Kaiso (pCS2-Myc-tag Kaiso), in HEK293T (protein, UniProt Q8BN78 1-671) MESRKLISATDIQYSASLLNSLNEQRGHGLFCDVTVIVEDRKFRAHRNILSASSTYFHQLFSVAGQVVELSFIRAEIFAEILNYIYSSKVVRVRADLLDELIKSGQLLGVKFIAELGVPLSQVKSISGTEQDGTAETLPSSSSDKSLDMEKSKDEAQDNGATVMPIITESFSLSAEDNEMKKIIVTDSDDDDDDDVIFCSEILPAKEDLPSNNTATQVQPNPASVAISEVTPCASNNSPPVTNITPTQLPTPVNQATLSQTQGSEELLVSSASTHLTPNIILLNQAPLTAPPSASSSLPNHMSSSVNVLVQNQQTPNSAVLTGNKAEEEEEIIDDDDDIISSSPDSAVSNTSLVPQADNSKSTTLDGSLTQKMQIPVLPQEPPSNSLKISDVITRNTNDPGLRSKHVMEGQKIITLDTATEIEGLSTGCKVYANIGEDTYDIVIPVKDDPDGGEAKLDNELPKTSGSEPPNKRMKVKHDDHYELIVDGRVYYICIVCKRSYVCLTSLRRHFNIHSWEKKYQCRYCDKVFPLAEYRTKHEIHHTGERRYQCLTCGKSFINYQFMSSHIKSVHSQDPSGDSKLYRLHPCKSLQIRQYAYLSNKSSAMPVMKDDAVGYKVDAGKEPPVGTTSTPPQNKSTFWEDIFIQQENDSIFKQNVTDGSTEFEFIIPESY
4 | – | – | binding [3]: binds | β-catenin (endogenous, Oli-neu cells), Q02248 1-781 (protein) MATQADLMELDMAMEPDRKAAVSHWQQQSYLDSGIHSGATTTAPSLSGKGNPEEEDVDTSQVLYEWEQGFSQSFTQEQVADIDGQYAMTRAQRVRAAMFPETLDEGMQIPSTQFDAAHPTNVQRLAEPSQMLKHAVVNLINYQDDAELATRAIPELTKLLNDEDQVVVNKAAVMVHQLSKKEASRHAIMRSPQMVSAIVRTMQNTNDVETARCTAGTLHNLSHHREGLLAIFKSGGIPALVKMLGSPVDSVLFYAITTLHNLLLHQEGAKMAVRLAGGLQKMVALLNKTNVKFLAITTDCLQILAYGNQESKLIILASGGPQALVNIMRTYTYEKLLWTTSRVLKVLSVCSSNKPAIVEAGGMQALGLHLTDPSQRLVQNCLWTLRNLSDAATKQEGMEGLLGTLVQLLGSDDINVVTCAAGILSNLTCNNYKNKMMVCQVGGIEALVRTVLRAGDREDITEPAICALRHLTSRHQEAEMAQNAVRLHYGLPVVVKLLHPPSHWPLIKATVGLIRNLALCPANHAPLREQGAIPRLVQLLVRAHQDTQRRTSMGGTQQQFVEGVRMEEIVEGCTGALHILARDVHNRIVIRGLNTIPLFVQLLYSPIENIQRVAAGVLCELAQDKEAAEAIEAEGATAPLTELLHSRNEGVATYAAAVLFRMSEDKPQDYKKRLSVELTSSLFRTEPMAWNETADLGLDIGAQGEALGYRQDDPSYRSFHSGGYGQDALGMDPMMEHEMGGHHPGADYPVDGLPDLGHAQDLMDGLPPGDSNQLAWFDTDL
5 | – | binds | – | Myc-Kaiso (pCS2-Myc-Kaiso), in Oli-neu cells (protein, UniProt Q8BN78 1-671) MESRKLISATDIQYSASLLNSLNEQRGHGLFCDVTVIVEDRKFRAHRNILSASSTYFHQLFSVAGQVVELSFIRAEIFAEILNYIYSSKVVRVRADLLDELIKSGQLLGVKFIAELGVPLSQVKSISGTEQDGTAETLPSSSSDKSLDMEKSKDEAQDNGATVMPIITESFSLSAEDNEMKKIIVTDSDDDDDDDVIFCSEILPAKEDLPSNNTATQVQPNPASVAISEVTPCASNNSPPVTNITPTQLPTPVNQATLSQTQGSEELLVSSASTHLTPNIILLNQAPLTAPPSASSSLPNHMSSSVNVLVQNQQTPNSAVLTGNKAEEEEEIIDDDDDIISSSPDSAVSNTSLVPQADNSKSTTLDGSLTQKMQIPVLPQEPPSNSLKISDVITRNTNDPGLRSKHVMEGQKIITLDTATEIEGLSTGCKVYANIGEDTYDIVIPVKDDPDGGEAKLDNELPKTSGSEPPNKRMKVKHDDHYELIVDGRVYYICIVCKRSYVCLTSLRRHFNIHSWEKKYQCRYCDKVFPLAEYRTKHEIHHTGERRYQCLTCGKSFINYQFMSSHIKSVHSQDPSGDSKLYRLHPCKSLQIRQYAYLSNKSSAMPVMKDDAVGYKVDAGKEPPVGTTSTPPQNKSTFWEDIFIQQENDSIFKQNVTDGSTEFEFIIPESY
6 | – | binds | – | Kaiso in Oli-neu cells (cells overexpressing Sox10) (protein, UniProt Q8BN78 1-671) MESRKLISATDIQYSASLLNSLNEQRGHGLFCDVTVIVEDRKFRAHRNILSASSTYFHQLFSVAGQVVELSFIRAEIFAEILNYIYSSKVVRVRADLLDELIKSGQLLGVKFIAELGVPLSQVKSISGTEQDGTAETLPSSSSDKSLDMEKSKDEAQDNGATVMPIITESFSLSAEDNEMKKIIVTDSDDDDDDDVIFCSEILPAKEDLPSNNTATQVQPNPASVAISEVTPCASNNSPPVTNITPTQLPTPVNQATLSQTQGSEELLVSSASTHLTPNIILLNQAPLTAPPSASSSLPNHMSSSVNVLVQNQQTPNSAVLTGNKAEEEEEIIDDDDDIISSSPDSAVSNTSLVPQADNSKSTTLDGSLTQKMQIPVLPQEPPSNSLKISDVITRNTNDPGLRSKHVMEGQKIITLDTATEIEGLSTGCKVYANIGEDTYDIVIPVKDDPDGGEAKLDNELPKTSGSEPPNKRMKVKHDDHYELIVDGRVYYICIVCKRSYVCLTSLRRHFNIHSWEKKYQCRYCDKVFPLAEYRTKHEIHHTGERRYQCLTCGKSFINYQFMSSHIKSVHSQDPSGDSKLYRLHPCKSLQIRQYAYLSNKSSAMPVMKDDAVGYKVDAGKEPPVGTTSTPPQNKSTFWEDIFIQQENDSIFKQNVTDGSTEFEFIIPESY

— paper PMC4786870
